PubChem BioAssay AID1053208 – Peter MacCallum Cancer Centre, 2014
The whole screen tested about 17,000 reagents; below is a part drawn at random. In the full data, 788 (4.7%) got an active call. 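Calls rest on z-score classes alone; an extra cut-off of viability at most 70% of control was not applied to them.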 Unmarked entries are inactive.

Test: 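Synthetic lethal interactions between gene loss and doxorubicin in osteosarcoma cells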 (primary screen)
Cell system: mouse osteosarcoma cells, early-passage culture from an engineered mouse model of fibroblastic bone tumour
Reagents: siRNA pool against mouse genes, 40 nM
Timing: about 120 h (48 h before drug, then 72 h with drug)
Treatment: doxorubicin 100 nM for 72 h, roughly 30-40% inhibitory dose
Measurement: 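Luminescent ATP signal taken as viability with or without 100 nM doxorubicin for 72 h; mean of two wells set against non-targeting siRNA and turned into robust z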
Direction: viability z-score with doxorubicin and doxorubicin viability vs non-targeting: higher = more viable cells under doxorubicin; viability z-score without drug: higher = more viable cells with knock-down alone; z-score of drug to no-drug ratio: higher = less drug sensitisation by knock-down
Rule for the call: 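a pool counts as active when its viability z-score with doxorubicin is -2 or below and its z-score without drug lies between -2 and 2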

| combined z-score class | viability z-score with doxorubicin | viability z-score without drug | z-score of drug to no-drug ratio | doxorubicin viability vs non-targeting | Target gene |
| --- | --- | --- | --- | --- | --- |
| no change with or without drug | -0.22 | -1.18 | 0.79 | 0.92 | Acat2 (acetyl-Coenzyme A acetyltransferase 2) |
| no change with or without drug | -0.56 | 0 | -0.45 | 0.89 | Gdpd4 (glycerophosphodiester phosphodiesterase domain containing 4) |
| no change with or without drug | -0.67 | -0.17 | -0.45 | 0.88 | Prl3d1 (prolactin family 3, subfamily d, member 1) |
| no change with or without drug | 1.24 | 1.52 | 0.34 | 1.05 | Sgsh (N-sulfoglucosamine sulfohydrolase (sulfamidase)) |
| no change with or without drug | 0 | -0.51 | 0.45 | 0.94 | Nkx2-3 (NK2 homeobox 3) |
| no change with or without drug | 0.9 | -0.17 | 1.24 | 1.02 | Ppp1r15b (protein phosphatase 1, regulatory subunit 15B) |
| high cell count without drug only | 1.46 | 2.02 | 0.22 | 1.07 | Sycp3 (synaptonemal complex protein 3) |
| low cell count with doxorubicin only (active) | -7.76 | 0.67 | -8.21 | 0.25 | 4921522P10Rik (RIKEN cDNA 4921522P10 gene) |
| no change with or without drug | 0.67 | 0.51 | 0.45 | 1 | NRG1 |
| no change with or without drug | -1.8 | -0.67 | -1.35 | 0.78 | Ctsll3 (cathepsin L-like 3) |
| no change with or without drug | 0.22 | -0.84 | 1.01 | 0.96 | Slc16a9 |
| high cell count with doxorubicin only | 2.36 | 0.84 | 1.91 | 1.15 | Galnt18 (polypeptide N-acetylgalactosaminyltransferase 18) |
| no change with or without drug | -1.12 | -1.01 | -0.45 | 0.84 | Ednrb (endothelin receptor type B) |
| high cell count with doxorubicin only | 2.02 | 0.34 | 1.91 | 1.12 | Inf2 (inverted formin, FH2 and WH2 domain containing) |
| low cell count with doxorubicin only (active) | -2.02 | -0.51 | -1.69 | 0.76 | Akr1c6 (aldo-keto reductase family 1, member C6) |
| no change with or without drug | 0.22 | 1.85 | -0.79 | 0.96 | Wdr47 (WD repeat domain 47) |
| no change with or without drug | 0.56 | 0.17 | 0.56 | 0.99 | Kansl1l (KAT8 regulatory NSL complex subunit 1-like) |
| no change with or without drug | 0 | -1.18 | 1.01 | 0.94 | Rtl3 (retrotransposon Gag like 3) |
| high cell count with doxorubicin only | 2.7 | 1.35 | 1.91 | 1.18 | Tmem126a (transmembrane protein 126A) |
| no change with or without drug | 0.67 | 0.17 | 0.67 | 1 | Arhgap15 (Rho GTPase activating protein 15) |
| no change with or without drug | -0.45 | 0.17 | -0.45 | 0.9 | Kmt5b (lysine methyltransferase 5B) |
| no change with or without drug | -1.57 | 0.84 | -2.02 | 0.8 | Marcksl1 (MARCKS-like 1) |
| high cell count without drug only | 1.12 | 2.53 | -0.34 | 1.04 | Pnma2 (paraneoplastic antigen MA2) |
| no change with or without drug | 0.9 | -0.17 | 1.24 | 1.02 | Or14c39 (olfactory receptor family 14 subfamily C member 39) |
| low cell count with doxorubicin only (active) | -3.37 | -1.52 | -2.7 | 0.64 | Nsmce3 (NSE3 homolog, SMC5-SMC6 complex component) |
| no change with or without drug | -0.22 | 0.51 | -0.45 | 0.92 | Arhgap4 (Rho GTPase activating protein 4) |
| low cell count with doxorubicin only (active) | -2.02 | -1.52 | -1.12 | 0.76 | Bicc1 (BicC family RNA binding protein 1) |
| no change with or without drug | 0 | 0.84 | -0.45 | 0.94 | Gpr179 (G protein-coupled receptor 179) |
| no change with or without drug | -1.12 | -0.34 | -0.9 | 0.84 | Catsperb (cation channel sperm associated auxiliary subunit beta) |
| no change with or without drug | 1.12 | 0.51 | 0.9 | 1.04 | Scara5 (scavenger receptor class A, member 5) |
| no change with or without drug | 1.12 | 1.18 | 0.45 | 1.04 | Gnb1 (guanine nucleotide binding protein (G protein), beta 1) |
| no change with or without drug | -0.45 | 0.17 | -0.45 | 0.9 | Cdo1 (cysteine dioxygenase 1, cytosolic) |
| no change with or without drug | -1.24 | -0.84 | -0.67 | 0.83 | Itm2b (integral membrane protein 2B) |
| low cell count with doxorubicin only (active) | -2.59 | -0.67 | -2.25 | 0.71 | Pcdhga2 (protocadherin gamma subfamily A, 2) |

4 entries from above, reformatted:
Kansl1l (KAT8 regulatory NSL complex subunit 1-like) — combined z-score class: no change with or without drug; viability z-score with doxorubicin: 0.56; viability z-score without drug: 0.17; z-score of drug to no-drug ratio: 0.56; doxorubicin viability vs non-targeting: 0.99
Rtl3 (retrotransposon Gag like 3) — combined z-score class: no change with or without drug; viability z-score with doxorubicin: 0; viability z-score without drug: -1.18; z-score of drug to no-drug ratio: 1.01; doxorubicin viability vs non-targeting: 0.94
Tmem126a (transmembrane protein 126A) — combined z-score class: high cell count with doxorubicin only; viability z-score with doxorubicin: 2.7; viability z-score without drug: 1.35; z-score of drug to no-drug ratio: 1.91; doxorubicin viability vs non-targeting: 1.18
Arhgap15 (Rho GTPase activating protein 15) — combined z-score class: no change with or without drug; viability z-score with doxorubicin: 0.67; viability z-score without drug: 0.17; z-score of drug to no-drug ratio: 0.67; doxorubicin viability vs non-targeting: 1
